Assay results: PMC12724330
No constants are given. Whether binding was seen depends on the method and setting. Binding seen in cells or lysates may run through a third protein. Some entries that bind do so weakly or less than the wild type.

Chains of the proteins cited; added tags and fusions are not shown.
UniProt Q13111: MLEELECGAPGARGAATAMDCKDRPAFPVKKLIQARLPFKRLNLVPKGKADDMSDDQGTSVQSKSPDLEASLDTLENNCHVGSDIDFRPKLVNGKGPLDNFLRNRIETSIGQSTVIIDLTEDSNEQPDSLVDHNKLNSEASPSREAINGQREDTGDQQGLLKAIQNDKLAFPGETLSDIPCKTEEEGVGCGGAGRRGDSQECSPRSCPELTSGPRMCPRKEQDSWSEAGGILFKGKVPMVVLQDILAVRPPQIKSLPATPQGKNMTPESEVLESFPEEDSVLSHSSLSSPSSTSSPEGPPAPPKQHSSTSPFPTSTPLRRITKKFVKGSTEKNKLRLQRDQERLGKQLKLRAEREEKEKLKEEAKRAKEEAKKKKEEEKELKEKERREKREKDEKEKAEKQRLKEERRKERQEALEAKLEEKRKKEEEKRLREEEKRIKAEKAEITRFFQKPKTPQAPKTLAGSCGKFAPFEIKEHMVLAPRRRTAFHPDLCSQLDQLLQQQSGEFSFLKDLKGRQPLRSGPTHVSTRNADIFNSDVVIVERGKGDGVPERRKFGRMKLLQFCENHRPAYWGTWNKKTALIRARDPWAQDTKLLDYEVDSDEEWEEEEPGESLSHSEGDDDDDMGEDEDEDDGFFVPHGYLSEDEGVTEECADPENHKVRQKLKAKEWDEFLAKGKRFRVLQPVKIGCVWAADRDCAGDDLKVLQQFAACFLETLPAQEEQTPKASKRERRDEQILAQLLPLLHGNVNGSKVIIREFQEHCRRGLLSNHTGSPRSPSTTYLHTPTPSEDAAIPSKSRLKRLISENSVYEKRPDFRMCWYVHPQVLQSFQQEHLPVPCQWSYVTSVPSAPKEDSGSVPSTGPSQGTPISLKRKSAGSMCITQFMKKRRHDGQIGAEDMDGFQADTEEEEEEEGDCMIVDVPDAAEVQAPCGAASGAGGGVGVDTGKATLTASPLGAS
UniProt P46934: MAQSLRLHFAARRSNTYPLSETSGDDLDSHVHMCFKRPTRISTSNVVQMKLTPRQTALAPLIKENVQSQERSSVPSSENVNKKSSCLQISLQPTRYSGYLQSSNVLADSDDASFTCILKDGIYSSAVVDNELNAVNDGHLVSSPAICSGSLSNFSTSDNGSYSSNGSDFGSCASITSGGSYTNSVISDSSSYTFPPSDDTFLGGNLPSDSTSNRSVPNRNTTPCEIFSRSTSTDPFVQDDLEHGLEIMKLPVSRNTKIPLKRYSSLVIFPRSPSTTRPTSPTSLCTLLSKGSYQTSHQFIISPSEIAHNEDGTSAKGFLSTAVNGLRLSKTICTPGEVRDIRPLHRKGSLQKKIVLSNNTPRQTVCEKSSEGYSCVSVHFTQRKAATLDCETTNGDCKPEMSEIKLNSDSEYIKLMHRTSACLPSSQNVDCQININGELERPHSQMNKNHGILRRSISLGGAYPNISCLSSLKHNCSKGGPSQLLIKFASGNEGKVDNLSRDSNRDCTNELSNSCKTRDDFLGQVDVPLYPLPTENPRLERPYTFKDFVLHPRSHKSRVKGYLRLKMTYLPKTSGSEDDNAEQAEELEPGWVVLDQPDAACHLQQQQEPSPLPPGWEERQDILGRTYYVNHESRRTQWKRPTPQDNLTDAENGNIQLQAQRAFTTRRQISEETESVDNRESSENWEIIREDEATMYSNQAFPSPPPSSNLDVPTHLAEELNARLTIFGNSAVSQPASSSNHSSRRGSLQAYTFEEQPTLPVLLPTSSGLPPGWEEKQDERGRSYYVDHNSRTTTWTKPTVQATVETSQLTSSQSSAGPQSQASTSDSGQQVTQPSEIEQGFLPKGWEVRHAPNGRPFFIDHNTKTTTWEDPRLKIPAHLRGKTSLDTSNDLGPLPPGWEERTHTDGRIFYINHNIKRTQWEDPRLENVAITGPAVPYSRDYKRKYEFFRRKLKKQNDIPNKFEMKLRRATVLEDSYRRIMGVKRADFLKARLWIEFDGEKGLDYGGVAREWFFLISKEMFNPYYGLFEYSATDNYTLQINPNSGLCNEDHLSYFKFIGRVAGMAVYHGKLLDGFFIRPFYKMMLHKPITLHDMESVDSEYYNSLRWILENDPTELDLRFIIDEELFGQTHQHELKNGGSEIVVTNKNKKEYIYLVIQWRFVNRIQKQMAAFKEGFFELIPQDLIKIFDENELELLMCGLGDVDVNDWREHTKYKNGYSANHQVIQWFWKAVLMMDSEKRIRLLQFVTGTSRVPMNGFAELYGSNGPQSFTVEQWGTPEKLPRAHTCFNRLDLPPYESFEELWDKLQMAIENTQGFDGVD

T1: O-GlcNAc transferase (OGT) (human (endogenous in Jurkat)) (UniProt O15294)
T1 sequence: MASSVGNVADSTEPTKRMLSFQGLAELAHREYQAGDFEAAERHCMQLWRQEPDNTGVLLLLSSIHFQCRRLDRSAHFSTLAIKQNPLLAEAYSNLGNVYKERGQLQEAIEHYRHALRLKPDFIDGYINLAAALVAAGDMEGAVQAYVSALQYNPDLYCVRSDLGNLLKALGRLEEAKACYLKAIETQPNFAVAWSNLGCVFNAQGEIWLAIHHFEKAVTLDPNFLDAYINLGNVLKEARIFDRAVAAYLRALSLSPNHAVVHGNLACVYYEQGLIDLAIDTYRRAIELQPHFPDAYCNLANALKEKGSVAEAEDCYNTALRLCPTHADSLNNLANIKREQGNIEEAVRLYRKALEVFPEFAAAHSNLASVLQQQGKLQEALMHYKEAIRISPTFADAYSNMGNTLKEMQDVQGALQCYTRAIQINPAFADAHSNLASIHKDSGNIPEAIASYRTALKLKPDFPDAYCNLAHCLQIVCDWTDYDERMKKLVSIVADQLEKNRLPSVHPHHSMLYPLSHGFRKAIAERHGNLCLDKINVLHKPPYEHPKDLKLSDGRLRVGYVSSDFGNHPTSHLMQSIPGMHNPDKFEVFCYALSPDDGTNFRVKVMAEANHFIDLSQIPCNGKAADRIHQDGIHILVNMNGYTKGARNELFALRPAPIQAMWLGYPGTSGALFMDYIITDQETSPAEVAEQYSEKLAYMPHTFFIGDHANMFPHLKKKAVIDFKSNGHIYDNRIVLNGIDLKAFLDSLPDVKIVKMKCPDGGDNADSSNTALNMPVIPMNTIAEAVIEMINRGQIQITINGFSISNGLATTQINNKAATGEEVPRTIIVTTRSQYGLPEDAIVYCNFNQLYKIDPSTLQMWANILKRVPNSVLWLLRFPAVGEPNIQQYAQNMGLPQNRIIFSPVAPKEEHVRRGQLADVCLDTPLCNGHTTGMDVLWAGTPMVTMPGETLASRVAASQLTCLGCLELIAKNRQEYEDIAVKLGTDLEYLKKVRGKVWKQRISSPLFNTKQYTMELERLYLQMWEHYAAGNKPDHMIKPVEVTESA


Key:
[1] = target: T1, O-GlcNAc transferase (OGT) (human (endogenous in Jurkat)); assay: co-IP; Jurkat cell lysates immunoprecipitated with anti-CHAF1A antibody or, reciprocally, anti-OGT antibody, IgG as control; western blot; all proteins endogenous
CHAF1A-HA = CHAF1A-HA (UniProt Q13111); assay: co-IP; HEK293T cells co-transfected with CHAF1A-HA and GFP-Flag (control), NEDD4-Flag or MIB1-Flag, treated with MG132; lysed at 48 h; western blot with HA, FLAG and GAPDH antibodies
[2] = target: Chromatin assembly factor 1 subunit A (CHAF1A) (human (endogenous in Jurkat)) (UniProt Q13111); assay: co-IP; Jurkat cell lysates immunoprecipitated with anti-CHAF1A antibody or, reciprocally, anti-OGT antibody, IgG as control; western blot; all proteins endogenous

Molecule | binding [2] | other results
Chromatin assembly factor 1 subunit A (CHAF1A) (from UniProt Q13111 1-956) |  | binding [1]: binds
NEDD4-Flag (from UniProt P46934 1-1319) (enzyme) |  | binding (CHAF1A-HA): no binding

Now from value to molecule, other results behind:

binding [2] | Molecule | other results
binds | O-GlcNAc transferase (OGT) (enzyme, UniProt O15294 1-1046) MASSVGNVADSTEPTKRMLSFQGLAELAHREYQAGDFEAAERHCMQLWRQEPDNTGVLLLLSSIHFQCRRLDRSAHFSTLAIKQNPLLAEAYSNLGNVYKERGQLQEAIEHYRHALRLKPDFIDGYINLAAALVAAGDMEGAVQAYVSALQYNPDLYCVRSDLGNLLKALGRLEEAKACYLKAIETQPNFAVAWSNLGCVFNAQGEIWLAIHHFEKAVTLDPNFLDAYINLGNVLKEARIFDRAVAAYLRALSLSPNHAVVHGNLACVYYEQGLIDLAIDTYRRAIELQPHFPDAYCNLANALKEKGSVAEAEDCYNTALRLCPTHADSLNNLANIKREQGNIEEAVRLYRKALEVFPEFAAAHSNLASVLQQQGKLQEALMHYKEAIRISPTFADAYSNMGNTLKEMQDVQGALQCYTRAIQINPAFADAHSNLASIHKDSGNIPEAIASYRTALKLKPDFPDAYCNLAHCLQIVCDWTDYDERMKKLVSIVADQLEKNRLPSVHPHHSMLYPLSHGFRKAIAERHGNLCLDKINVLHKPPYEHPKDLKLSDGRLRVGYVSSDFGNHPTSHLMQSIPGMHNPDKFEVFCYALSPDDGTNFRVKVMAEANHFIDLSQIPCNGKAADRIHQDGIHILVNMNGYTKGARNELFALRPAPIQAMWLGYPGTSGALFMDYIITDQETSPAEVAEQYSEKLAYMPHTFFIGDHANMFPHLKKKAVIDFKSNGHIYDNRIVLNGIDLKAFLDSLPDVKIVKMKCPDGGDNADSSNTALNMPVIPMNTIAEAVIEMINRGQIQITINGFSISNGLATTQINNKAATGEEVPRTIIVTTRSQYGLPEDAIVYCNFNQLYKIDPSTLQMWANILKRVPNSVLWLLRFPAVGEPNIQQYAQNMGLPQNRIIFSPVAPKEEHVRRGQLADVCLDTPLCNGHTTGMDVLWAGTPMVTMPGETLASRVAASQLTCLGCLELIAKNRQEYEDIAVKLGTDLEYLKKVRGKVWKQRISSPLFNTKQYTMELERLYLQMWEHYAAGNKPDHMIKPVEVTESA | 
binds | O-GlcNAcase (OGA) (enzyme, UniProt O60502 1-916) MVQKESQATLEERESELSSNPAASAGASLEPPAAPAPGEDNPAGAGGAAVAGAAGGARRFLCGVVEGFYGRPWVMEQRKELFRRLQKWELNTYLYAPKDDYKHRMFWREMYSVEEAEQLMTLISAAREYEIEFIYAISPGLDITFSNPKEVSTLKRKLDQVSQFGCRSFALLFDDIDHNMCAADKEVFSSFAHAQVSITNEIYQYLGEPETFLFCPTEYCGTFCYPNVSQSPYLRTVGEKLLPGIEVLWTGPKVVSKEIPVESIEEVSKIIKRAPVIWDNIHANDYDQKRLFLGPYKGRSTELIPRLKGVLTNPNCEFEANYVAIHTLATWYKSNMNGVRKDVVMTDSEDSTVSIQIKLENEGSDEDIETDVLYSPQMALKLALTEWLQEFGVPHQYSSRQVAHSGAKASVVDGTPLVAAPSLNATTVVTTVYQEPIMSQGAALSGEPTTLTKEEEKKQPDEEPMDMVVEKQEETDHKNDNQILSEIVEAKMAEELKPMDTDKESIAESKSPEMSMQEDCISDIAPMQTDEQTNKEQFVPGPNEKPLYTAEPVTLEDLQLLADLFYLPYEHGPKGAQMLREFQWLRANSSVVSVNCKGKDSEKIEEWRSRAAKFEEMCGLVMGMFTRLSNCANRTILYDMYSYVWDIKSIMSMVKSFVQWLGCRSHSSAQFLIGDQEPWAFRGGLAGEFQRLLPIDGANDLFFQPPPLTPTSKVYTIRPYFPKDEASVYKICREMYDDGVGLPFQSQPDLIGDKLVGGLLSLSLDYCFVLEDEDGICGYALGTVDVTPFIKKCKISWIPFMQEKYTKPNGDKELSEAEKIMLSFHEEQEVLPETFLANFPSLIKMDIHKKVTDPSVAKSMMACLLSSLKANGSRGAFCEVRPDDKRILEFYSKLGCFEIAKMEGFPKDVVILGRSL | 
